Data from publication PMC2843647.
Results are given in words; binding and its absence hold for the method and conditions named. Binding seen in cells or lysates may run through a third protein. Some binding calls cover weakened binding; strength is not graded here.

By UniProt entry, the sequences of proteins in these tests, tags left out. Where a name states a change or a piece, a line headed by the entry shows the natural chain unless it says otherwise.
UniProt Q15788: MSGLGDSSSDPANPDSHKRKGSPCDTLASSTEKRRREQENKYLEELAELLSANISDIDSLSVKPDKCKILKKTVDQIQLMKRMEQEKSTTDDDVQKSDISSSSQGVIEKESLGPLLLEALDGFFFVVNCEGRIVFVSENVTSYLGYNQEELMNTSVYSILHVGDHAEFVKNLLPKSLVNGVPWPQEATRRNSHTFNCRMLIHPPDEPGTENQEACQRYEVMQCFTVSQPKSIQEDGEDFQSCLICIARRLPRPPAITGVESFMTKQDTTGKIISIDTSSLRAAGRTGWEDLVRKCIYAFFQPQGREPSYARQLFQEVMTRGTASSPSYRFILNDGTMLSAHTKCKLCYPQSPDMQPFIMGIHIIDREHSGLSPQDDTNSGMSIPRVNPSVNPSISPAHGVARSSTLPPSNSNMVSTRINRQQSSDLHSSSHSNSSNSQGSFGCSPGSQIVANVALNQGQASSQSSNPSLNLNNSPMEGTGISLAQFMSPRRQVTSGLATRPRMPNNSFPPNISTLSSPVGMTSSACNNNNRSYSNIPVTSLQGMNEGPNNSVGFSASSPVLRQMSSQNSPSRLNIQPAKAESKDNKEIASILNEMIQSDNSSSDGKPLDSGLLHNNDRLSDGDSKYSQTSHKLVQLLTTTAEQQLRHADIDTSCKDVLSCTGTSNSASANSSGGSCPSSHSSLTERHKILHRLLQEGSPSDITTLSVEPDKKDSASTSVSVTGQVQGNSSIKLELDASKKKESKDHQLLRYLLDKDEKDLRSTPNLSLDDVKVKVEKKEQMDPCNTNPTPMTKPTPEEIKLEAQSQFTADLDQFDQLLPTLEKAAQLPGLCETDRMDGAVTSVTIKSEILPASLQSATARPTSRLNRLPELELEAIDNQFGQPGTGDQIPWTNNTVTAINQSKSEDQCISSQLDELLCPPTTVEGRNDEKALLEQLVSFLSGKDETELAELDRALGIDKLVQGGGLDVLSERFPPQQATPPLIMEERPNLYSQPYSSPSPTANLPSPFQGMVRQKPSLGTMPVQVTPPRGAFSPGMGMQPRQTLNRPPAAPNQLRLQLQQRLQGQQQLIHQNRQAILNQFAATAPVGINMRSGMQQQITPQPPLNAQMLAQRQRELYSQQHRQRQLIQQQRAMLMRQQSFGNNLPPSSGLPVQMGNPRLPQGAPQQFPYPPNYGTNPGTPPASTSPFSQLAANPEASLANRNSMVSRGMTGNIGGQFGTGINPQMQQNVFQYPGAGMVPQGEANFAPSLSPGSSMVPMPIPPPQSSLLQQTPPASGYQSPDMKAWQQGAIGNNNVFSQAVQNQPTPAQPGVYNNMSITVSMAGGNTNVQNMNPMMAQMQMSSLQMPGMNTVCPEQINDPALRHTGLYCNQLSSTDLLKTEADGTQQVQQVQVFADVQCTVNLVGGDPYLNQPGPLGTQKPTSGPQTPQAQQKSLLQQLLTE
UniProt Q7Z6E9: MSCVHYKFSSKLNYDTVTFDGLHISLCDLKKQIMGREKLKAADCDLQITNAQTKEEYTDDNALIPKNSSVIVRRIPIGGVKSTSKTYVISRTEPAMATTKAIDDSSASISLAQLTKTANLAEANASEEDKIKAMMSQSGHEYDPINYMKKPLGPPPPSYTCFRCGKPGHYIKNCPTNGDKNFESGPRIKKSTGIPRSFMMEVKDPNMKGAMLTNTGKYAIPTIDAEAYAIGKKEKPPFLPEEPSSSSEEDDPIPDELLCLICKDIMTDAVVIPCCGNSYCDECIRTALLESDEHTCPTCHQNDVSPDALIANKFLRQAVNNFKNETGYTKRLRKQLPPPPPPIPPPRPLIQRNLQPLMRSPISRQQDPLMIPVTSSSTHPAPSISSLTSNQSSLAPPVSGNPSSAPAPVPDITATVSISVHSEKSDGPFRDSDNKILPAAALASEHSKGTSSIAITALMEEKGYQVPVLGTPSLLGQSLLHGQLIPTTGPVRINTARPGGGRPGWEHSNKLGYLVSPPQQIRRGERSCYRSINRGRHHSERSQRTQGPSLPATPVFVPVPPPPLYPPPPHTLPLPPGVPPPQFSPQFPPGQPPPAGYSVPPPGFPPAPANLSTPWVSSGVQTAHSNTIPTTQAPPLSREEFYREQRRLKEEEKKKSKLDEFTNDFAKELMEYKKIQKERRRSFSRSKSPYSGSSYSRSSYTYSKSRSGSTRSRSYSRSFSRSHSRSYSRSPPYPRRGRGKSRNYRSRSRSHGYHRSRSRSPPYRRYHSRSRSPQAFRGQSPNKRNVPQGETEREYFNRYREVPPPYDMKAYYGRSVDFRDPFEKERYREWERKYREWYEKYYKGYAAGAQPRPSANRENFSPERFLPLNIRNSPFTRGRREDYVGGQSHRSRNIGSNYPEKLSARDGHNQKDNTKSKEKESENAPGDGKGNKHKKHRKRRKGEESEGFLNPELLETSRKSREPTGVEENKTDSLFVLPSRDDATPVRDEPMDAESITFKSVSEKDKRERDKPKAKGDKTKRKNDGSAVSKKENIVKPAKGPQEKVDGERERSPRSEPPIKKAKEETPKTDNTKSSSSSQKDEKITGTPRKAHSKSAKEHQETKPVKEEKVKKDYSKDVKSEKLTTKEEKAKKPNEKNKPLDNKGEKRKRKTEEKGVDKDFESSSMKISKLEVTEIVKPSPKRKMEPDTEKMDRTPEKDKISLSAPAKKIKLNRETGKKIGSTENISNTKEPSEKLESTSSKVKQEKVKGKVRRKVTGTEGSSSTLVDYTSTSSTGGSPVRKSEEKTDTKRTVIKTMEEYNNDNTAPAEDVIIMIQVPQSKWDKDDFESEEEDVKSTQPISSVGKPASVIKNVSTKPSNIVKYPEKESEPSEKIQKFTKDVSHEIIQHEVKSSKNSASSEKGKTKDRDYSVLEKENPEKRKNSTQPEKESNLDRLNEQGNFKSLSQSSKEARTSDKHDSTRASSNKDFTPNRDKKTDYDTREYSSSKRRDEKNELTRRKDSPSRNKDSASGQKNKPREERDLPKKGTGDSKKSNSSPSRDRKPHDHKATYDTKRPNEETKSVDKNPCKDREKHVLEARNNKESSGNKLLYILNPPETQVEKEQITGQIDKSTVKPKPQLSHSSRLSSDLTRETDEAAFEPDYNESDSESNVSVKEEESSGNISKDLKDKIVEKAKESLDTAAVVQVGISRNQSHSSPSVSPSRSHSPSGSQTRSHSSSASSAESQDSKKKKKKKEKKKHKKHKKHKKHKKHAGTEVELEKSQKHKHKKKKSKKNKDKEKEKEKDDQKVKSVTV

How the values were obtained:
[1] = target: steroid receptor co-activator 1 (human (endogenous in HeLa)) (UniProt Q15788); experiment: co-IP; endogenous proteins, HeLa extracts, about 1 mg of total cell extract per immunoprecipitation; immunoprecipitation with anti-SRC-1 or anti-P2P-R, blot with anti-P2P-R or anti-SRC-1
[2] = target: P2P-R protein (human (endogenous in HeLa and MCF-7)) (UniProt Q7Z6E9); experiment: as above

binding [1]	binding [2]	Substance
binds	–	P2P-R protein (from UniProt Q7Z6E9 1-1792)
–	binds	steroid receptor co-activator 1 (from UniProt Q15788 1-1441)
